# Assay results: paper PMC5996148
# The list shows a part of the results.
# What was measured:
# Assay in all cases: protein microarray (ProtoArray v5.0), streptavidin-Alexa Fluor 647
# Conditions in all cases: 3'-biotin; 20 mM Tris (pH 7.5), 5 mM MgCl2, 100 mM KCl, 0.1% Tween-20, A/T-rich and random oligonucleotide blockers; temperature not stated; high values mean tight binding
# [1] = test system: Dual specificity mitogen-activated protein kinase kinase 3 (human)
# [2] = test system: Dual specificity phosphatase DUPD1 (human)
# [3] = test system: Dynein light chain roadblock-type 1 (human)
# [4] = test system: Dynein light chain roadblock-type 2 (human)
# E2F4 (human) = test system: E2F4 (human)
# [5] = test system: E3 ubiquitin-protein ligase Arkadia (human)
# EBF1 (human) = test system: EBF1 (human)
# EBP (human) = test system: EBP (human)
# ECE1 (human) = test system: ECE1 (human)
# ECE2 (human) = test system: ECE2 (human)
sequence,measurement,setting,value
GGGAGGCTGAGGCAGG [G4-1 biotinylated (PQS2)],binding signal,[1],-0.276 z-score
same,binding signal,[2],-0.269 z-score
same,binding signal,[3],-0.295 z-score
same,binding signal,[4],-0.27 z-score
same,binding signal,E2F4 (human),-0.348 z-score
same,binding signal,[5],-0.311 z-score
same,binding signal,EBF1 (human),-0.329 z-score
same,binding signal,EBP (human),-0.313 z-score
same,binding signal,ECE1 (human),-0.34 z-score
same,binding signal,ECE2 (human),-0.358 z-score

# Given bar-delimited: entries from further up
sequence | measurement | setting | value
GGGAGGCTGAGGCAGG [G4-1 biotinylated (PQS2)] | binding signal | [4] | -0.27 z-score
same | binding signal | E2F4 (human) | -0.348 z-score
